Results reported in the supplement of paper PMC4371806.
Over roughly 2,300 compounds, “plate-normalized OD600 growth (mean of duplicates)” has its median near 0.29; the lowest 2% begin near 0.22. Some of the results follow.

Test system: Escherichia coli BW25113
Assay: plate-normalized OD600 growth (mean of duplicates) (OD600 (normalized)); higher = more growth (less inhibition)
Details: 10 µM
Protocol: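 E. coli BW25113 in LB (100 µl, 96-well, no shaking) was exposed to 10 µM of each compound from a ~30,000-member library and grown at 37°C for 24 h or 15°C for 48 h, in duplicate. Growth was read as OD600 and the duplicate ODs were normalized across screening plates to correct plate-to-plate variation. Hits were >3σ below the mean OD600 at 15°C and <2σ below the mean at 37°C.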

Structure (SMILES)	plate-normalized OD600 growth (temperature: 15°C, 48 h)	plate-normalized OD600 growth (temperature: 37°C, 24 h)
Brc1cccc(Nc2nc(N/N=C\c3ccc4c(c3)OCO4)nc(N3CCOCC3)n2)c1	0.226	0.626
COc1ccc(C)c2c1NC(c1ccc(S(=O)(=O)N3CCOCC3)cc1)C1CC=CC21 (stereo not given)	0.264	0.62
O=C1CCCC2=C1C(c1cccnc1)CC(=O)N2c1ccc(F)cc1 (stereo not given)	0.27	0.635
N#C/C(=C\c1ccc(Oc2ccccc2)nc1)S(=O)(=O)c1ccccc1	0.248	0.608
Cc1ccsc1/C=N\Nc1nonc1N	0.245	0.658
CCOC(=O)c1ccc2oc3ccc(O)cc3c(=O)c2c1	0.258	0.61
CCSC1OC(OC=O)C(OC=O)C(OC=O)C1NC=O (stereo not given)	0.256	0.619
O=C(NCc1cccnc1)c1cc2ccccc2oc1=O	0.256	0.635
Brc1ccc(C=Nc2ccc(Nc3ccccc3)cc2)s1	0.245	0.651
COc1cc(NC(=S)N2CCN(c3ccccc3OC)CC2)c(OC)cc1Cl	0.231	0.614
CCOC(=O)NC(=O)c1cn(Nc2ncc(Cl)cc2C(F)(F)F)c(=O)[nH]c1=O	0.279	0.642
CCCCCCc1cc2c(C)cc(=O)oc2cc1O	0.243	0.617
O=C(NC1Cc2ccccc2C1)c1cncc(Br)c1	0.281	0.658
COc1cccc(CC(=O)NC2CCN(c3nccc(C(F)(F)F)n3)CC2)c1	0.252	0.642
CC(C)=NNC(=O)CNC(=O)CNS(=O)(=O)c1ccc([N+](=O)[O-])cc1	0.231	0.603
Cc1sc(NC(=O)c2cc3ccccc3oc2=O)nc1-c1ccc(-c2ccccc2)cc1	0.253	0.625
O=C(CN(c1ccc(Cl)cc1)S(=O)(=O)c1ccccc1)N/N=C/c1cccc(O)c1O	0.244	0.638
CCCCc1ccc(-n2nc3cc(C)c(N)cc3n2)cc1	0.254	0.613
CCC1SC(=Nc2ccccc2C)NC1=O (stereo not given)	0.222	0.636
O=C(NNC(=S)Nc1cccc(Cl)c1)c1ccncc1	0.234	0.597
CC(=O)c1ccc2c3c(onc13)-c1ccccc1C2=O	0.253	0.644
O=C1/C(=C\c2ccccc2)N=C(c2ccccc2)N1CNc1nccs1	0.254	0.585
Nc1[nH]c(=O)c(CO)c(N)c1S(=O)(=O)c1ccccc1	0.211	0.632
COC(=O)c1ccsc1N	0.253	0.623

5 consecutive records out of the list so far, quoted:
Structure (SMILES)	plate-normalized OD600 growth (temperature: 15°C, 48 h)	plate-normalized OD600 growth (temperature: 37°C, 24 h)
CCSC1OC(OC=O)C(OC=O)C(OC=O)C1NC=O (stereo not given)	0.256	0.619
O=C(NCc1cccnc1)c1cc2ccccc2oc1=O	0.256	0.635
Brc1ccc(C=Nc2ccc(Nc3ccccc3)cc2)s1	0.245	0.651
COc1cc(NC(=S)N2CCN(c3ccccc3OC)CC2)c(OC)cc1Cl	0.231	0.614
CCOC(=O)NC(=O)c1cn(Nc2ncc(Cl)cc2C(F)(F)F)c(=O)[nH]c1=O	0.279	0.642

The list continues.

Structure (SMILES)	plate-normalized OD600 growth (temperature: 15°C, 48 h)	plate-normalized OD600 growth (temperature: 37°C, 24 h)
CSC(=CC(=O)c1ccc(Cl)cc1)SC	0.236	0.624
COC(=O)C(=NNc1ccccc1)C(=O)OC	0.253	0.62
COc1cc(NC(=O)CCN2CCC(C)CC2)cc(OC)c1	0.217	0.647
N/C(=N/OS(=O)(=O)c1ccc(Cl)cc1)c1ccc(C(F)(F)F)cc1	0.26	0.613
COc1ccc2c(=S)c(-c3csc(C)n3)c(C)oc2c1	0.251	0.613
O=C(NCc1ccc2c(c1)OCO2)Nc1ccccc1	0.25	0.627
CCC(=O)Nc1cc(F)ccc1C	0.253	0.623
O=C(OC1CCCCC1)c1ccc(NS(=O)(=O)c2ccc([N+](=O)[O-])cc2)cc1	0.262	0.622
CC(=O)Nc1ccc(S(=O)(=O)NCCCN2CCN(Cc3ccccc3)CC2)cc1Cl	0.222	0.644
Cc1ccc(C2=NOC(=O)/C2=C\c2ccc(F)c(Oc3ccccc3)c2)cc1	0.256	0.657
COc1cc(C(=O)N/N=C/c2cc(C)n(-c3cccc(C(=O)O)c3C)c2C)ccc1I	0.258	0.672
COc1ccc(O)c(C2NC(CC(C)C)(C(=O)O)C3C(=O)N(c4ccccc4OC)C(=O)C23)c1 (stereo not given)	0.245	0.613
Cc1ccc(C(=O)c2c(NC(=O)c3ccncc3)sc3c2CCCC3)cc1	0.251	0.635
O=C(CNC(=O)C(c1ccccc1)c1ccccc1)N/N=C/c1cc([N+](=O)[O-])cc([N+](=O)[O-])c1O	0.265	0.633
CC(=O)Nc1ccc(NC(=O)CSc2nnc(NS(C)(=O)=O)s2)cc1	0.252	0.63
C=CCn1c(Sc2ncc([N+](=O)[O-])s2)n[nH]c1=O	0.181	0.588
COc1ccc(C2C(C(C)=O)=C(C)N=C3SCC(=O)N32)c(OC)c1 (stereo not given)	0.242	0.592
Cc1ccc2[nH]c(C)c(CCNC(=O)c3sc4ccccc4c3Cl)c2c1	0.262	0.62
CC(=O)c1ccc(N=Cc2cc(C)n(-c3ccc(C)c(C)c3)c2C)cc1	0.227	0.634
Cc1ccc(C(C)C)c(OCC(=O)N/N=C/c2ccc(O)c(O)c2)c1	0.255	0.631
O=C1/C(=C/c2ccco2)N=C(c2ccccc2)N1c1ccc(C(=O)N2c3ccccc3Sc3ccccc32)cc1	0.251	0.644
Nc1c(C(=O)c2cc3ccccc3o2)oc2ccc(Br)cc12	0.24	0.629
O=C(NC(=S)Nc1ccc(Cl)cc1)c1ccc([N+](=O)[O-])o1	0.266	0.645
Cc1ccc(NC(=S)C(C#N)C(=O)N2CCCC2)c(C)c1 (stereo not given)	0.251	0.624

Structure (SMILES)	plate-normalized OD600 growth (temperature: 15°C, 48 h)	plate-normalized OD600 growth (temperature: 37°C, 24 h)
CC(=O)c1cnn(-c2ccccc2)c1C	0.259	0.623
C=CCOc1ccc2c(C)c(CCCC)c(=O)oc2c1	0.237	0.628
COc1ccc(OCc2nc3ccccc3n2CC(C)C)cc1	0.234	0.627
Cc1ccccc1N1C(=O)c2ccccc2C1=O	0.23	0.61
Cc1ccccc1OCC1Cn2c(nc3c2c(=O)[nH]c(=O)n3C)O1 (stereo not given)	0.253	0.602
O=S(=O)(NCc1ccc2c(c1)OCO2)c1ccc(F)c(Cl)c1	0.234	0.616
COc1ccc(S(=O)(=O)NCCc2c(C)[nH]c3ccc(Br)cc23)c2ccccc12	0.249	0.605
CC(C)(C)C(=O)Nc1cccc(C(=O)Nc2ccc3c(c2)-c2cc(NC(=O)c4cccc(NC(=O)C(C)(C)C)c4)ccc2C3)c1	0.254	0.631
Cc1oc(N=Cc2ccc(-c3ccc([N+](=O)[O-])cc3)o2)c(C#N)c1C	0.241	0.597
NCc1nc2ccccc2n1Cc1ccccc1	0.24	0.606
CCc1c(C)nc2cc(-c3ccc(Cl)cc3)[nH]n2c1=O	0.214	0.632
N#CC1=C(S)N=C(N)C(c2nc(-c3ccccc3)cs2)C12CCCCC2 (stereo not given)	0.24	0.624
CCN(CC)c1ccc(O)c(C=Nc2ccc(S(=O)(=O)O)cc2C(=O)O)c1	0.254	0.613
CC(C)C(=O)Nc1cccc2nsnc12	0.237	0.605
Nc1ccc(NC(=O)c2cccc(C(=O)Nc3ccc(N)cc3)c2)cc1	0.253	0.616
CCOC(=O)c1c(NC(=O)c2cc(S(N)(=O)=O)c(Cl)cc2Cl)sc2c1CCCC2	0.238	0.603
COC(=O)c1ccccc1NC(=O)CSc1ccccc1	0.248	0.629
Cc1ccc2nc(Cl)c(C=Nc3ccccn3)cc2c1	0.226	0.611
FC(F)(F)c1ccc(-n2cncn2)nc1	0.252	0.62
CCN(CC)CCOc1ccccc1OC	0.235	0.602
CC(=O)Nc1ncc(Cc2ccc(F)cc2)s1	0.252	0.629
CCCCOc1cccc(NC(=O)CCSc2nccn2C)c1	0.25	0.643
CCOC(=O)Cn1nnc(-c2ccc(S(C)(=O)=O)cc2)n1	0.229	0.632
N#CC1=C(N)Oc2n[nH]c(-c3cccs3)c2C12C(=O)Nc1ccc([N+](=O)[O-])cc12 (stereo not given)	0.265	0.618

Structure (SMILES)	plate-normalized OD600 growth (temperature: 15°C, 48 h)	plate-normalized OD600 growth (temperature: 37°C, 24 h)
C=CCc1cccc2cc(C(=O)Nc3ccccc3)c(=O)oc12	0.233	0.609
COc1ccc(C(C)=O)cc1CSC(=NS(=O)(=O)c1ccccc1)Nc1cccc(F)c1	0.235	0.61
CN1CCN(C2=CC(=O)OC23CCCCC3)CC1	0.247	0.626
CCCCCCCCNS(=O)(=O)c1ccc(N2C(=O)CCC2=O)cc1	0.25	0.613
c1ccc2c(c1)nc(N1CCCC1)n2CCN1CCCCC1	0.249	0.619
CCOC(=O)c1ccc2[nH]c(-c3ccccc3)cc(=O)c2c1	0.257	0.615
CC1=NN(c2cccc(S(N)(=O)=O)c2)C(=O)C1	0.225	0.612
C/C(=N/O)c1ccc2c(c1)C(C)(C)CCC2(C)C	0.256	0.629
COc1ccc(OCC(=O)N/N=C/c2ccc(I)cc2)cc1	0.251	0.617
O=C(Nc1ccc(F)c(Cl)c1)c1ccc(N2C(=O)/C(=C/c3ccccc3)N=C2c2ccccc2)cc1	0.238	0.653
CN(C)N=Nc1ccc(S(=O)(=O)NC(=O)Cc2ccccc2)cc1	0.24	0.612
COc1ccc(/C=N/NC(=O)c2nnn(-c3nonc3N)c2-c2ccccc2)cc1OC	0.241	0.615
O=C(Oc1ccc(-c2cnc3ccccc3n2)cc1)c1ccco1	0.235	0.628
CC(C)(C)c1cc(CCCSCCc2cc(C(C)(C)C)c(O)c(C(C)(C)C)c2)cc(C(C)(C)C)c1O	0.243	0.622
COCc1cc(C)nc2sc(C(=O)Nc3cc4c(cc3C#N)OCO4)c(N)c12	0.249	0.65
COc1ccc(S(=O)(=O)c2cc(NC(=O)c3ccc(Cl)cc3)c(C)c(C)c2O)cc1	0.24	0.618
O=C(NCCOc1ccc(Cl)cc1)C(=O)Nc1cccc(C(F)(F)F)c1	0.242	0.617
COc1ccc(Cl)cc1S(=O)(=O)NCCc1c(C)[nH]c2ccccc12	0.254	0.62
N#CC(C(=O)Nc1cccc(C(F)(F)F)c1)C(=S)Nc1ccccc1Cl (stereo not given)	0.254	0.644
CCOC(=O)C(C)Sc1nc(CC)c(C)cc1C#N (stereo not given)	0.248	0.613
N#C/C(=C\c1ccc(/C=C(\C#N)c2nn(-c3ccccc3)c(N)c2C#N)cc1)c1nn(-c2ccccc2)c(N)c1C#N	0.267	0.652
Cc1onc(-c2ccccc2Cl)c1C(=O)N1CCCN2C(=O)c3ccccc3C21 (stereo not given)	0.239	0.605
CCn1cc([N+](=O)[O-])nc1C	0.257	0.624
